In paper PMC7819943, “Rice protein-binding microarrays: a tool to detect cis-acting elements near promoter regions in rice”:
This is one part of the list.

These sequences were tested against T1, OsSMF1 (Oryza sativa, UniProt Q6ZLB0 1-436) (assay: protein-binding microarray (RPBM); PBS, 2% BSA, 51.3 ng/ul salmon testes DNA, 50 uM zinc acetate, 200 nM TF, 25 C, 1 h; high values mean tight binding). Conditions: protein: recombinant; tags: N-terminal polyhistidine and DsRed monomer fusion (pET32a); chain copies: 2; label: CyDye5-dUTP incorporated in the synthesized complementary strand; 3' TTTTT single-stranded linker to array surface; dsDNA, one strand shown.
T1 sequence: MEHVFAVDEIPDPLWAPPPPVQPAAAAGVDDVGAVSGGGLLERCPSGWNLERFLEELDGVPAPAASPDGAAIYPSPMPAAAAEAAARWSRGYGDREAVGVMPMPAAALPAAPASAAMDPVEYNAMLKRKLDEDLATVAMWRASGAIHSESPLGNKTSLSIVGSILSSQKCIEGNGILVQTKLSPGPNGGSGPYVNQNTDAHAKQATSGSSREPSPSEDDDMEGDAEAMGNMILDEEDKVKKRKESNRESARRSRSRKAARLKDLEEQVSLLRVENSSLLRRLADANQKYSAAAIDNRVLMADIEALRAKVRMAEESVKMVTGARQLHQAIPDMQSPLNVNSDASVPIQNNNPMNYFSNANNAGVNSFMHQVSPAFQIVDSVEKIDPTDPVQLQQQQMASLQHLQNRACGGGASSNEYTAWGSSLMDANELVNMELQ
Method in brief: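 Binding signal is defined as the fluorescence intensity of each feature in arbitrary units, read on an Axon 4000B scanner. Transcription factors with N-terminal polyhistidine and DsRed fusions came from E. coli BL21-CodonPlus and were purified on Ni–NTA. They were incubated at 200 nM for 1 h at 25 °C on a custom Agilent array that had been made double-stranded with Cy5-dUTP, with 50 µM zinc acetate present, and the array was washed.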

Sequence | binding signal
CCGAGCCACGTCGCGCCGCCGCCGCTGCTGTGCCGCCGCGCGGAGTCACCTAGTGCAG | 5650 fluorescence intensity (a.u.)
TAAACAAACCATTTCCTCCCCGCTATTGCGACTCCCGCCTCGGAGTCACCTAGTGCAG | 22900 fluorescence intensity (a.u.)
ATATTAAAATACGGAGGGAGTACTTGTTTACAGTTCTAAGCGGAGTCACCTAGTGCAG | 3410 fluorescence intensity (a.u.)
ATGGCTGGCATTAGACTACACGTCGTTGCTCCACTTGTGTCGGAGTCACCTAGTGCAG | 5280 fluorescence intensity (a.u.)
TCATTGCTCTAAAATAATCTCTATATGTTGTCAAGTAGGACGGAGTCACCTAGTGCAG | 3300 fluorescence intensity (a.u.)
TCCTCCACCACTCACACTCCGCCACGTGTCCATCTAAGCCCGGAGTCACCTAGTGCAG | 17000 fluorescence intensity (a.u.)
GGCCCATCACACGCGGCGCCTCTCTCTCCCTCTCCCCAAACGGAGTCACCTAGTGCAG | 3700 fluorescence intensity (a.u.)
GTCAAGTTGCTTTTGCATTTGCATACGCACACACTGCCATCGGAGTCACCTAGTGCAG | 3830 fluorescence intensity (a.u.)
ACATTATCATGTCACGTCGTCGCGTAATCATGGGTACCCACGGAGTCACCTAGTGCAG | 4200 fluorescence intensity (a.u.)
ATATTCAGCTGATTGGGGCATTGGGTATTTGCAGTGAGCACGGAGTCACCTAGTGCAG | 3460 fluorescence intensity (a.u.)
ATCCATGCGGACGCAGCTAGCAGTCGTCGTTGCGTTGCTTCGGAGTCACCTAGTGCAG | 3620 fluorescence intensity (a.u.)
AAAACAATATTAAAGGTATAAGTACATCGTGTATGTTTTACGGAGTCACCTAGTGCAG | 6520 fluorescence intensity (a.u.)
GAACTCCGGTCGGGATCGCGTAAACTGCGACGTGGGCTTGCGGAGTCACCTAGTGCAG | 3780 fluorescence intensity (a.u.)
CAAAATCGGATACAACGCATCCCTCAACTTACAAAACCGTCGGAGTCACCTAGTGCAG | 3490 fluorescence intensity (a.u.)
TTATTTGTTTAATTAGGACGTTCCACGTGTTTGACTATCACGGAGTCACCTAGTGCAG | 8620 fluorescence intensity (a.u.)
GGGGCAAGCAATGCCACGTATGTTTGTCACAGTTTGCAGGCGGAGTCACCTAGTGCAG | 13400 fluorescence intensity (a.u.)
TTTCATCCGATGTTTCGTGAGGGGTGACAAATTAATTGATCGGAGTCACCTAGTGCAG | 3980 fluorescence intensity (a.u.)
TCTTGGGGTGCTCGAACACGACGTGGCTCCACGCCGACCGCGGAGTCACCTAGTGCAG | 6760 fluorescence intensity (a.u.)
GCGTTGCTCCGGTGCTCGATCGGTCTCCCCGCCCGGCCGCCGGAGTCACCTAGTGCAG | 9620 fluorescence intensity (a.u.)
AAGCCCAAAATTTAGTAGGACGTCACTTCTCACTACCTGGCGGAGTCACCTAGTGCAG | 3800 fluorescence intensity (a.u.)
CACACCACAAGCGCACGACACACGTCACACACAAACCAACCGGAGTCACCTAGTGCAG | 7680 fluorescence intensity (a.u.)

Rewritten field by field: entries from further up
TCCTCCACCACTCACACTCCGCCACGTGTCCATCTAAGCCCGGAGTCACCTAGTGCAG
  binding signal = 17000 fluorescence intensity (a.u.)
GGCCCATCACACGCGGCGCCTCTCTCTCCCTCTCCCCAAACGGAGTCACCTAGTGCAG
  binding signal = 3700 fluorescence intensity (a.u.)
GTCAAGTTGCTTTTGCATTTGCATACGCACACACTGCCATCGGAGTCACCTAGTGCAG
  binding signal = 3830 fluorescence intensity (a.u.)

(cont.)

Sequence | binding signal
TCGATTTGGGGAAGGGAGAGGCGTGTGGCGTGTGACGTGTCGGAGTCACCTAGTGCAG | 19500 fluorescence intensity (a.u.)
TACAAACTGAAACATCTGTGTGTCACTAGTCAGTCACTATCGGAGTCACCTAGTGCAG | 3850 fluorescence intensity (a.u.)
TATTTAATTGTTGTTACAATGACACTGCTTTACAACCTATCGGAGTCACCTAGTGCAG | 3990 fluorescence intensity (a.u.)
TTATGTATTTCCTTTTATGGTGACACTACAGTGTTTTGCGCGGAGTCACCTAGTGCAG | 3600 fluorescence intensity (a.u.)
TTATGGATGCGCCGCGCGCACCTGTGACGTGTTGCCGGCGCGGAGTCACCTAGTGCAG | 11800 fluorescence intensity (a.u.)
GATCAAATTGCCACGTAAGCGCCACGTCAATGCCATGTCACGGAGTCACCTAGTGCAG | 48000 fluorescence intensity (a.u.)
AGCGACGCGCACCTAAACACGTGTGACGCGAGCGGCGAGCCGGAGTCACCTAGTGCAG | 5710 fluorescence intensity (a.u.)
GCTGAATTTACGTGGATGAGCTAATTAGGTCCAGGACATTCGGAGTCACCTAGTGCAG | 3160 fluorescence intensity (a.u.)
TCCAAACACGCGCAAACACCGCACGTGCCTGACCCAAACTCGGAGTCACCTAGTGCAG | 3210 fluorescence intensity (a.u.)
ACAAGCTGAGTTGGAGATTAACAAAGAATGGTGTGTTCACCGGAGTCACCTAGTGCAG | 3810 fluorescence intensity (a.u.)
CTGTTAAGTGTCAATGGGTACGTCACCTAGCTGTAAATACCGGAGTCACCTAGTGCAG | 3460 fluorescence intensity (a.u.)
CCCCATCCTAGATGGAACAACCACGTCATCTCATGGGTGACGGAGTCACCTAGTGCAG | 14800 fluorescence intensity (a.u.)
TATTAGATTACACACGTTTTCCCATAAGCTATCTTTTAAGCGGAGTCACCTAGTGCAG | 3260 fluorescence intensity (a.u.)
ATAGCGCGCACCACCACTCGGCGTGTACACACACACACATCGGAGTCACCTAGTGCAG | 3820 fluorescence intensity (a.u.)
ACGTTAGCGCCACGTGGCACCGGCCTTTCGTCCTTATCCTCGGAGTCACCTAGTGCAG | 24800 fluorescence intensity (a.u.)
GGTGGAGTTGCCTTGCCCGAGAGGAGCGGGCACTTCGGGTCGGAGTCACCTAGTGCAG | 4840 fluorescence intensity (a.u.)
CGATTGGTAGATGCAGTTCTCAGCTCTCAATGATGCAACTCGGAGTCACCTAGTGCAG | 3690 fluorescence intensity (a.u.)
GTCGTCTAGTAGTAGTAGCCTACCACCACCTCCCTCGGCGCGGAGTCACCTAGTGCAG | 3230 fluorescence intensity (a.u.)
AAAACGTGCACGTGGAAAACGAGCTAGATGGGTTGGGAAGCGGAGTCACCTAGTGCAG | 3320 fluorescence intensity (a.u.)
TCTCGCTTACAGGTGGGTCCCACACGTCATCCTCTCCGGGCGGAGTCACCTAGTGCAG | 18800 fluorescence intensity (a.u.)
TGGGTGGGTGCGGCGTGGAGTGACGTGGCGGCGGGTGTGGCGGAGTCACCTAGTGCAG | 20900 fluorescence intensity (a.u.)
